{"source": "paper PMC6718989", "key": {"[1]": {"system": "human alpha-thrombin (Homo sapiens)", "experiment": "switchSENSE", "conditions": "50 mM Tris, no added salt, non-specific binding at >= 125 nM thrombin; 10 mM Tris-HCl pH 7.4, 140 mM XCl (K, Na, NH4 or Li), 0.05% Tween 20, 50 uM EDTA, 50 uM EGTA, 25 C, flow 2000 uL/min; commercial protein; label: dye on immobilized strand; letters put together from the description"}, "[2]": {"system": "human alpha-thrombin, cNL-B48 conjugate (Homo sapiens)", "experiment": "switchSENSE", "conditions": "140 mM KCl, thrombin immobilized, 10 mM Tris-HCl pH 7.4, 140 mM XCl (K, Na, NH4 or Li), 0.05% Tween 20, 50 uM EDTA, 50 uM EGTA, 25 C, flow 2000 uL/min, commercial protein, protein details: covalently amine-coupled to 5' end of cNL-B48 DNA"}}, "note": "For some of these results: Negatives hold for the conditions tested. For at least one entry, the source does not settle the construct or the ends of the probe."}
{"sequence": "ATCAGCGTTCGATGCTTCCGACTAATCAGCCATATCAGCTTACGACTA (double strand) [dsDNA nanolever (NL-B48/cNL-B48)]", "values": [{"measurement": "binding result", "setting": "[1]", "value": "binds"}]}
{"sequence": "TTTGGGTTAGGGTTAGGGTTAGGGTTTATCAGCGTTCGATGCTTCCGACTAATCAGCCATATCAGCTTACGACTA [HTA (in solution)]", "values": [{"measurement": "binding result", "setting": "[2]; folded or branched DNA", "value": "no binding"}]}
{"sequence": "GTGTGGTGTGTGTGGTTTATCAGCGTTCGATGCTTCCGACTAATCAGCCATATCAGCTTACGACTA [TBAsc (in solution)]", "values": [{"measurement": "binding result", "setting": "[2]; single-stranded DNA", "value": "no binding"}]}
{"sequence": "GGTTGGTGTGGTTGGTTTATCAGCGTTCGATGCTTCCGACTAATCAGCCATATCAGCTTACGACTA [TBA (in solution)]", "values": [{"measurement": "Kd", "setting": "[2]; kon 4.6e7 M-1s-1, koff 2.8e-1 s-1, folded or branched DNA", "value": 6.2, "unit": "nM"}]}
